Values from PubChem BioAssay AID504774 (Drosophila RNAi Screening Center, 2011)

Aim: 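Genes required for cells to withstand methyl methanesulphonate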 (primary screen)
System: Drosophila Kc167 cells
Knock-down reagent: long dsRNA against Drosophila genes, about 0.25 µg dsRNA per well
Duration: about 6 days: 3 days knock-down, then 3 days with or without MMS
Conditions: methyl methanesulphonate 0.004% (w/v) for 3 days after knock-down
Read-out: 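Viability in wells given MMS, read as ATP luminescence, normalised by quantiles plate by plate and averaged across replicates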
Scale: mean viability with MMS and viability with MMS: higher = more surviving cells after MMS
The deposit covers about 23,000 reagents; shown is a random part of those with a known target gene and a result. 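Values are quantile-normalised luminescence on an arbitrary scale; higher means more cells surviving MMS.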 Reagents against one gene are numbered here. Further read-outs or replicates are left out here. Reagent sequences are not shown.

Knock-down of CG30389 #1 resulted in: mean viability with MMS 3.33e6; viability with MMS, replicate 1 = 3.79e6.
CG30389 #2 gave mean viability with MMS 3.44e6; viability with MMS, replicate 1 = 3.94e6.
For CG5597, the values are mean viability with MMS 3.53e6; viability with MMS, replicate 1 = 4.21e6.
CG15201 scored mean viability with MMS 3.60e6; viability with MMS, replicate 1 = 4.08e6.
Against CG5347, the entry reads mean viability with MMS 3.62e6; viability with MMS, replicate 1 = 4.07e6.
With knock-down of Cyp6a21, the screen gave mean viability with MMS 3.67e6; viability with MMS, replicate 1 = 4.06e6.
With knock-down of CG7378, the screen gave mean viability with MMS 3.57e6; viability with MMS, replicate 1 = 4.07e6.
CG10919 scored mean viability with MMS 3.57e6; viability with MMS, replicate 1 = 3.95e6.
For Trmt61 the deposit lists mean viability with MMS 3.53e6; viability with MMS, replicate 1 = 3.98e6.

2 of these entries, set out differently.
| gene knocked down | dsRNA no. | mean viability with MMS | viability with MMS, replicate 1 |
| --- | --- | --- | --- |
| CG10919 | 1 | 3.57e6 | 3.95e6 |
| Trmt61 | 1 | 3.53e6 | 3.98e6 |

Further reagents follow:
For Dtd, the entry reads mean viability with MMS 3.61e6; viability with MMS, replicate 1 = 4.04e6.
Against Polr2B the deposit lists mean viability with MMS 2.94e6; viability with MMS, replicate 1 = 3.56e6.
For Nna1, the entry reads mean viability with MMS 3.60e6; viability with MMS, replicate 1 = 4.28e6.
RapGAP1 #1 scored mean viability with MMS 3.61e6; viability with MMS, replicate 1 = 4.05e6.
After knock-down of RapGAP1 #2, the record shows mean viability with MMS 3.46e6; viability with MMS, replicate 1 = 3.90e6.
After knock-down of RapGAP1 #3 the results were mean viability with MMS 3.58e6; viability with MMS, replicate 1 = 3.96e6.
